From PMC5547134
Results are given in words; binding and its absence hold for the method and conditions named. Binding seen in cells or lysates may run through a third protein. For part of these data: Binding can be weak; no strength is given. Sequences can lack the tags named with a protein.

T1: Myc-tagged ILDR1 cytoplasmic fragment (mouse) (mouse) (UniProt Q8CBR1)
T1 sequence: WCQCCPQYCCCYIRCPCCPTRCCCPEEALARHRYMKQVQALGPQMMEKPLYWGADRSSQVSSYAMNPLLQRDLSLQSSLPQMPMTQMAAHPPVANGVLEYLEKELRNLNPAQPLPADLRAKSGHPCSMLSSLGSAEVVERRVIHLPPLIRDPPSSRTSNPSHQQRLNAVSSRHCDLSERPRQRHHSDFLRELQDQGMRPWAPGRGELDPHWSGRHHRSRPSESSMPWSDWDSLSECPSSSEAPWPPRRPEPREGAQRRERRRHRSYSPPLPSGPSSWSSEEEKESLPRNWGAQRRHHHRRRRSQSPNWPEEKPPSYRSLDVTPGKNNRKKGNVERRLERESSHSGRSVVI

B1: EGFP-tagged mouse TRA2B (protein, UniProt P62996 1-288)
chain: MSDSGEQNYGERESRSASRSGSAHGSGKSARHTPARSRSKEDSRRSRSKSRSRSESRSRSRRSSRRHYTRSRSRSRSHRRSRSRSYSRDYRRRHSHSHSPMSTRRRHVGNRANPDPNCCLGVFGLSLYTTERDLREVFSKYGPIADVSIVYDQQSRRSRGFAFVYFENVDDAKEAKERANGMELDGRRIRVDFSITKRPHTPTPGIYMGRPTYGSSRRRDYYDRGYDRGYDDRDYYSRSYRGGGGGGGGWRAAQDRDQIYRRRSPSPYYSRGGYRSRSRSRSYSPRRY
B2: EGFP-tagged mouse TRA2A (protein, UniProt Q6PFR5 1-281)
chain: MSDVEENNFEGRESRSQSKSPTGTPARVKSESRSGSRSPSRVSKHSESHSRSRSKSRSRSRRHSHRRYTRSRSHSHRRRSRSRSYTPEYRRRRSRSHSPMSNRRRHTGSRANPDPNTCLGVFGLSLYTTERDLREVFSRYGPLSGVNVVYDQRTGRSRGFAFVYFERIDDSKEAMERANGMELDGRRIRVDYSITKRAHTPTPGIYMGRPTHSGGGGGGGGGGGGGGGGGGGRRRDSYYDRGYDRGYDRYEDYDYRRRSPSPYYSRYRSRSRSRSYSPRRY

Experiments:
[1] = biological target: T1, Myc-tagged ILDR1 cytoplasmic fragment (mouse) (mouse); test: co-IP; HEK293T co-transfected; lysis in 150 mM NaCl, 50 mM Tris pH 7.5, 1% Triton X-100; immobilised anti-Myc antibody at 4 °C overnight; washed three times with 500 mM lysis buffer; western blot with anti-GFP or anti-Myc
[2] = biological target: ILDR1α’ cytoplasmic domain (mouse) (mouse); test: as above

Row | Molecule | binding [1] | binding [2]
1 | EGFP-tagged TRA2B RS domain (mouse) (domain or fragment) | binds | 
2 | EGFP-tagged SRSF1 RS domain (mouse) (domain or fragment) | binds | 
3 | EGFP-tagged SRSF1 RRM domain (mouse) (domain or fragment) | no binding | 
4 | EGFP-tagged TRA2A RS domain (mouse) (domain or fragment) | binds | 
5 | B1 |  | no binding
6 | B2 |  | no binding
